PubChem BioAssay AID1224830 – NIAID – 2016
Test: 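Regulators of TLR4 signalling towards TNF-alpha in macrophage-like cells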 (primary screen). Cell system: human THP-1 monocytic leukaemia cells, TNF dual-luciferase reporter clone, PMA-differentiated to macrophage-like cells. Knock-down reagent: siRNA pool against human genes, 50 nM. Time to read-out: LPS for 4 h, given about 3 days after siRNA transfection. Treatment: bacterial LPS (TLR4 ligand), 10 ng/ml. Measurement: 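TNF firefly reporter luminescence divided by renilla, normalised to the plate median, then turned into a robust z-score for each replicate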. Reading the numbers: TNF reporter robust z-score: higher = stronger TNF reporter response to LPS. Rule for the call: 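a well is active when its z-score exceeds 2.8 or falls below -1.5; control wells carry no call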.
Shown is an unselected part of about 18,000 reagents tested. About 2,900 of all reagents (16%) were called active. 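Calls are made per well; low scores hint the gene aids the LPS response, high scores that it dampens it.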 A number with no mark means an inactive call. Repeated entries: four replicate wells of each siRNA pool.

| Gene | TNF reporter robust z-score |
| --- | --- |
| BBX (BBX high mobility group box domain containing) | 0.46 |
| BBX (BBX high mobility group box domain containing) | 0.18 |
| BBX (BBX high mobility group box domain containing) | 0.77 |
| BBX (BBX high mobility group box domain containing) | 1.19 |
| ZNF429 (zinc finger protein 429) | -0.07 |
| ZNF429 (zinc finger protein 429) | 1.25 |
| ZNF429 (zinc finger protein 429) | -0.96 |
| ZNF429 (zinc finger protein 429) | -1.19 |
| CRYBA1 (crystallin beta A1) | -0.05 |
| CRYBA1 (crystallin beta A1) | 0.23 |
| CRYBA1 (crystallin beta A1) | 0.21 |
| H4C3 (H4 clustered histone 3) | -0.89 |
| H4C3 (H4 clustered histone 3) | -0.92 |
| H4C3 (H4 clustered histone 3) | -0.82 |
| H4C3 (H4 clustered histone 3) | -0.79 |
| NUDT15 (nudix hydrolase 15) | 1.1 |
| NUDT15 (nudix hydrolase 15) | 4.48 (active) |
| NUDT15 (nudix hydrolase 15) | 2.02 |
| NUDT15 (nudix hydrolase 15) | -0.42 |
| GALNT5 (polypeptide N-acetylgalactosaminyltransferase 5) | -0.18 |
| GALNT5 (polypeptide N-acetylgalactosaminyltransferase 5) | 0.52 |
| GALNT5 (polypeptide N-acetylgalactosaminyltransferase 5) | 0.8 |
| GALNT5 (polypeptide N-acetylgalactosaminyltransferase 5) | 1.69 |
| LRTM2 (leucine rich repeat transmembrane protein 2) | 0.54 |
| LRTM2 (leucine rich repeat transmembrane protein 2) | 1.69 |
| LRTM2 (leucine rich repeat transmembrane protein 2) | 0.21 |
| LRTM2 (leucine rich repeat transmembrane protein 2) | 0.29 |
| EFCAB14 (EF-hand calcium binding domain 14) | -0.7 |
| EFCAB14 (EF-hand calcium binding domain 14) | -0.75 |
| EFCAB14 (EF-hand calcium binding domain 14) | -0.29 |
| EFCAB14 (EF-hand calcium binding domain 14) | -0.71 |
| LGALS3 (galectin 3) | 0 |
| LGALS3 (galectin 3) | 0.8 |
| LGALS3 (galectin 3) | 0.3 |
| LGALS3 (galectin 3) | 1.18 |
| MIMS1 (mitochondrial inner membrane structural 1) | 0.62 |
| MIMS1 (mitochondrial inner membrane structural 1) | 1.31 |
| MIMS1 (mitochondrial inner membrane structural 1) | 0.78 |
| MIMS1 (mitochondrial inner membrane structural 1) | 2.43 |
| TRIM16L (tripartite motif containing 16 like (pseudogene)) | -0.14 |
| TRIM16L (tripartite motif containing 16 like (pseudogene)) | -0.26 |
| TRIM16L (tripartite motif containing 16 like (pseudogene)) | 1.11 |
| TRIM16L (tripartite motif containing 16 like (pseudogene)) | 0.66 |
| FAT2 (FAT atypical cadherin 2) | -1.04 |
| FAT2 (FAT atypical cadherin 2) | -0.94 |
| FAT2 (FAT atypical cadherin 2) | -1.36 |
| FAT2 (FAT atypical cadherin 2) | -0.57 |
| SEC11B | -0.65 |
| SEC11B | 0.04 |
| SEC11B | -0.86 |
| SEC11B | -0.6 |
| ARHGAP19 (Rho GTPase activating protein 19) | -0.55 |
| ARHGAP19 (Rho GTPase activating protein 19) | -0.82 |
| ARHGAP19 (Rho GTPase activating protein 19) | -0.29 |
| ARHGAP19 (Rho GTPase activating protein 19) | -0.46 |
| RPL24 (ribosomal protein L24) | 0.35 |
| RPL24 (ribosomal protein L24) | -1.22 |
| RPL24 (ribosomal protein L24) | -1.12 |
| RPL24 (ribosomal protein L24) | -1.51 (active) |
| LRRC41 (leucine rich repeat containing 41) | 0.55 |
| LRRC41 (leucine rich repeat containing 41) | 0.7 |
| LRRC41 (leucine rich repeat containing 41) | 0.51 |
| LRRC41 (leucine rich repeat containing 41) | 0.33 |

Records listed so far marked active (2):
| Gene | TNF reporter robust z-score |
| --- | --- |
| NUDT15 (nudix hydrolase 15) | 4.48 (active) |
| RPL24 (ribosomal protein L24) | -1.51 (active) |

Continued:
| Gene | TNF reporter robust z-score |
| --- | --- |
| ZNF574 (zinc finger protein 574) | 2.31 |
| ZNF574 (zinc finger protein 574) | 3.03 (active) |
| ZNF574 (zinc finger protein 574) | 0.86 |
| ZNF574 (zinc finger protein 574) | 0.87 |
| DPEP1 (dipeptidase 1) | -0.39 |
| DPEP1 (dipeptidase 1) | 0.47 |
| DPEP1 (dipeptidase 1) | -0.41 |
| DPEP1 (dipeptidase 1) | -0.13 |
| ARHGEF37 (Rho guanine nucleotide exchange factor 37) | -0.83 |
| ARHGEF37 (Rho guanine nucleotide exchange factor 37) | -0.17 |
| ARHGEF37 (Rho guanine nucleotide exchange factor 37) | -0.34 |
| ARHGEF37 (Rho guanine nucleotide exchange factor 37) | 0.37 |
| HNRNPC (heterogeneous nuclear ribonucleoprotein C) | -1.67 (active) |
| HNRNPC (heterogeneous nuclear ribonucleoprotein C) | -1.93 (active) |
| HNRNPC (heterogeneous nuclear ribonucleoprotein C) | -1.99 (active) |
| HNRNPC (heterogeneous nuclear ribonucleoprotein C) | -1.92 (active) |
| SF3B6 (splicing factor 3b subunit 6) | -1.02 |
| SF3B6 (splicing factor 3b subunit 6) | -1.41 |
| SF3B6 (splicing factor 3b subunit 6) | -1.17 |
| CDIPT (CDP-diacylglycerol--inositol 3-phosphatidyltransferase) | 0.67 |
| CDIPT (CDP-diacylglycerol--inositol 3-phosphatidyltransferase) | -0.31 |
| CDIPT (CDP-diacylglycerol--inositol 3-phosphatidyltransferase) | 0.33 |
| CDIPT (CDP-diacylglycerol--inositol 3-phosphatidyltransferase) | 0.76 |
| LINC01599 (long independently transcribed non-coding RNA 1599) | -1.01 |
| LINC01599 (long independently transcribed non-coding RNA 1599) | 0.41 |
| LINC01599 (long independently transcribed non-coding RNA 1599) | 0.56 |
| LINC01599 (long independently transcribed non-coding RNA 1599) | -0.4 |
| CMBL (carboxymethylenebutenolidase homolog) | 1.03 |
| CMBL (carboxymethylenebutenolidase homolog) | 1.18 |
| CMBL (carboxymethylenebutenolidase homolog) | 1.86 |
| CMBL (carboxymethylenebutenolidase homolog) | -0.18 |
| FRRS1 (ferric chelate reductase 1) | -0.18 |
| FRRS1 (ferric chelate reductase 1) | 0.71 |
| FRRS1 (ferric chelate reductase 1) | 0.14 |
| FRRS1 (ferric chelate reductase 1) | 0.16 |
| BRF1 (BRF1 general transcription factor IIIB subunit) | -1.28 |
| BRF1 (BRF1 general transcription factor IIIB subunit) | -0.88 |
| BRF1 (BRF1 general transcription factor IIIB subunit) | -0.09 |
| BRF1 (BRF1 general transcription factor IIIB subunit) | 1.48 |
| TRIM51EP (tripartite motif-containing 51E, pseudogene) | 0.7 |
| TRIM51EP (tripartite motif-containing 51E, pseudogene) | 0.82 |
| TRIM51EP (tripartite motif-containing 51E, pseudogene) | -0.49 |
| TRIM51EP (tripartite motif-containing 51E, pseudogene) | -0.12 |
| SHISA2 (shisa family member 2) | 1.45 |
| SHISA2 (shisa family member 2) | 1.94 |
| SHISA2 (shisa family member 2) | 1.4 |
| SHISA2 (shisa family member 2) | -0.33 |
